No constants are given. Whether binding was seen depends on the method and setting. Binding seen in cells or lysates may run through a third protein. A result given as binding can be weak or reduced; the word gives no strength.
Target: Flag-HA-tagged AGO1 (human) (UniProt Q9UL18)
Assay: co-IP

Substance: RanBP2 dead E3 mutant (RanBP2-dE3) (from UniProt P49792)
- binding: binds
